Reference: the supplement of paper PMC10849652
Some of the results follow.

By UniProt entry, the sequences of proteins in these tests, tags left out. Where a name states a change or a piece, a line headed by the entry shows the natural chain unless it says otherwise.
UniProt Q9BVC4, whole entry, looked up: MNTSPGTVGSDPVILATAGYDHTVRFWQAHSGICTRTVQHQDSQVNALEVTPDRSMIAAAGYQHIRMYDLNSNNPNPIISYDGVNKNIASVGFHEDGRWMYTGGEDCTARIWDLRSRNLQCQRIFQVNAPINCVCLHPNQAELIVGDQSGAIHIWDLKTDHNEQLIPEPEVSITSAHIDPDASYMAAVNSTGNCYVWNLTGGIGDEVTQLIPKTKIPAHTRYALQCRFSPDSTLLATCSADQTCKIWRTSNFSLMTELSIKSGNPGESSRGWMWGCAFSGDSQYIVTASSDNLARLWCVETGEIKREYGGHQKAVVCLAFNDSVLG
UniProt Q8TDZ2: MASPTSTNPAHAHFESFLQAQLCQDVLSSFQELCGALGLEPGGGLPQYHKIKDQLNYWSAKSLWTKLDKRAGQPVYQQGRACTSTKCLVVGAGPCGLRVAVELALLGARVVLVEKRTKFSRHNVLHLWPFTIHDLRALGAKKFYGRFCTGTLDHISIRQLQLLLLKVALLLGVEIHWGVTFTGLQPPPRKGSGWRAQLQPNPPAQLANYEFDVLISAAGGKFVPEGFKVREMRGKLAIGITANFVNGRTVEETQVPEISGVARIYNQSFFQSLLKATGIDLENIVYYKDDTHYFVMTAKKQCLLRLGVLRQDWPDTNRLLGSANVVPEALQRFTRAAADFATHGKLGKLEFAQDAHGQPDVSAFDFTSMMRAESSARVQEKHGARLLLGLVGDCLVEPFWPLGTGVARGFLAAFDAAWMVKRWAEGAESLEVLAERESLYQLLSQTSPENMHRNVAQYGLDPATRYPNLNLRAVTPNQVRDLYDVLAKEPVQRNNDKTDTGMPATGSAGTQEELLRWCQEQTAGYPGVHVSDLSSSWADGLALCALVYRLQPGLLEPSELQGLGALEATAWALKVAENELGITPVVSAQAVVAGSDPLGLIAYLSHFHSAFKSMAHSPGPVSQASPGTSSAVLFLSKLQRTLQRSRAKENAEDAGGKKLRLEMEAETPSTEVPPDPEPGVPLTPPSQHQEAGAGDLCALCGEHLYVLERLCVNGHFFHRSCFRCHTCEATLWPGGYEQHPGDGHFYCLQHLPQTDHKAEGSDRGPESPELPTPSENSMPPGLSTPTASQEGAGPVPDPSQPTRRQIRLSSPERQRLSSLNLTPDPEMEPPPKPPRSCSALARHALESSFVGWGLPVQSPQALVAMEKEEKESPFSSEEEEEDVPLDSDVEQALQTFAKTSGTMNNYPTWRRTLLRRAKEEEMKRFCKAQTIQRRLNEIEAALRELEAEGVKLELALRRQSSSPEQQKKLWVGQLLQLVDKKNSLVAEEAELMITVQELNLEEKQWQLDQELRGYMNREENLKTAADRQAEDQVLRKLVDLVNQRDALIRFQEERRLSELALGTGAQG
UniProt Q9BWT6: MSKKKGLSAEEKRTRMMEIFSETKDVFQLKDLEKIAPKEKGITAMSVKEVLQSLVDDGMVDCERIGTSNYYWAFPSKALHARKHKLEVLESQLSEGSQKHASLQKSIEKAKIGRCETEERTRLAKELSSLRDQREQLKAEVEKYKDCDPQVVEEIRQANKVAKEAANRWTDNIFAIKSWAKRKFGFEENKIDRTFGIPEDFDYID
UniProt Q9BV20: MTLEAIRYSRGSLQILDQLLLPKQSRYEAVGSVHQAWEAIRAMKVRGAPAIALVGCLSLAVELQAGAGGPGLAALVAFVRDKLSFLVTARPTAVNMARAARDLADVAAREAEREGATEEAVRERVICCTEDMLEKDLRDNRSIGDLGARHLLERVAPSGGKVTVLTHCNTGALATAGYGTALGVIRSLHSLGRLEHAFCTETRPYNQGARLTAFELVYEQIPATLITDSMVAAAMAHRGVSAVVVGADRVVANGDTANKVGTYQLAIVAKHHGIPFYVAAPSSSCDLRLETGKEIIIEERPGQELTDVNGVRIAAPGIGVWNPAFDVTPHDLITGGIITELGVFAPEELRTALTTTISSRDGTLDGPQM
UniProt O96007: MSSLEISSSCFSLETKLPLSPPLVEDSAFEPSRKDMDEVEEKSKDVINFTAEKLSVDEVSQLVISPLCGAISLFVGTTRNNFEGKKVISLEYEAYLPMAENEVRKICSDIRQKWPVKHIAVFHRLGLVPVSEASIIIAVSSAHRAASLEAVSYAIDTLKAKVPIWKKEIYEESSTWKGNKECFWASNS
UniProt Q03111: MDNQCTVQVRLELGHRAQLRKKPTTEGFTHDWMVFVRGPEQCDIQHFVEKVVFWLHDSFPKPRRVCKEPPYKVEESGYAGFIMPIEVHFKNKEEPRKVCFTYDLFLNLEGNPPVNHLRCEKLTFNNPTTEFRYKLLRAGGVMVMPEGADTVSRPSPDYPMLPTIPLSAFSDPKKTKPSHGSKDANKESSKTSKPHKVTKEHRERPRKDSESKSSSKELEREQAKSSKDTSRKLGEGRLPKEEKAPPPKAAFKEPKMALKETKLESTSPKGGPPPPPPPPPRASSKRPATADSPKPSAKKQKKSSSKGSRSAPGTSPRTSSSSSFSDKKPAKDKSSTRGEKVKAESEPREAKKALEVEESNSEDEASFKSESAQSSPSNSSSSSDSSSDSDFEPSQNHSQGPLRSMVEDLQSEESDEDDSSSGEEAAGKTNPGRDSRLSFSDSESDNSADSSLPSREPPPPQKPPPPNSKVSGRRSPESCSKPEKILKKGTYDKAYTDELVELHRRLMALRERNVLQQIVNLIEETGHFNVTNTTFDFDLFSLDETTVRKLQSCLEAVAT
UniProt Q8N3F8: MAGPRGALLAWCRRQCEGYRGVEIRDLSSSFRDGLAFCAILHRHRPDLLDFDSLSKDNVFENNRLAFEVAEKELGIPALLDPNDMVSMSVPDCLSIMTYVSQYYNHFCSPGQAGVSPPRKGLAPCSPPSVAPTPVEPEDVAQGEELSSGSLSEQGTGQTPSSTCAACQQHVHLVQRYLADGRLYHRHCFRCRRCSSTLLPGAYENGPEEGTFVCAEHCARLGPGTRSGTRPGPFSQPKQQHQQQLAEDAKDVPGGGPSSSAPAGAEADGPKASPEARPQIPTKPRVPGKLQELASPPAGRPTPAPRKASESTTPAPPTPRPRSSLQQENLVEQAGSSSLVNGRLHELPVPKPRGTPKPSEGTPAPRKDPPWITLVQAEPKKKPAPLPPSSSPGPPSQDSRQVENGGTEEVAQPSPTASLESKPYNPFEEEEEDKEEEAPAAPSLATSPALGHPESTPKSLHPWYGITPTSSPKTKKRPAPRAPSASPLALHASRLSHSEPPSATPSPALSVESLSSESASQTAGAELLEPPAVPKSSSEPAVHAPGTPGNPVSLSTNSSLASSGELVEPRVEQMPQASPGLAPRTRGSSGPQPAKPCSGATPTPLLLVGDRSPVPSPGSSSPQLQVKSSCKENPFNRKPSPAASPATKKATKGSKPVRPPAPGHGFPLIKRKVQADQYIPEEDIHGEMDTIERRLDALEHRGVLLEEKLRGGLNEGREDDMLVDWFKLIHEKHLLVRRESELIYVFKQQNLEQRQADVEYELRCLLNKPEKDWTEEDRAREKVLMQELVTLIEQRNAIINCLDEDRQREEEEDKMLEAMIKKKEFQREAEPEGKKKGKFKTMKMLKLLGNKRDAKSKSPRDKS
UniProt Q9UH92: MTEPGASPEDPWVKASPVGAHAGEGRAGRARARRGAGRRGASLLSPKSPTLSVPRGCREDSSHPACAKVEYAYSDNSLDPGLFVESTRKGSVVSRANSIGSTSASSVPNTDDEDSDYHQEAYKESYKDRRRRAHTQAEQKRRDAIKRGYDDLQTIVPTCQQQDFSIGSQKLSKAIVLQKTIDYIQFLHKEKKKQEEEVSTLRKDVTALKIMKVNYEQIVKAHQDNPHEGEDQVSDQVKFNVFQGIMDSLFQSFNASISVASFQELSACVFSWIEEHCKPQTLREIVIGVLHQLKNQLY
UniProt Q9NQG6: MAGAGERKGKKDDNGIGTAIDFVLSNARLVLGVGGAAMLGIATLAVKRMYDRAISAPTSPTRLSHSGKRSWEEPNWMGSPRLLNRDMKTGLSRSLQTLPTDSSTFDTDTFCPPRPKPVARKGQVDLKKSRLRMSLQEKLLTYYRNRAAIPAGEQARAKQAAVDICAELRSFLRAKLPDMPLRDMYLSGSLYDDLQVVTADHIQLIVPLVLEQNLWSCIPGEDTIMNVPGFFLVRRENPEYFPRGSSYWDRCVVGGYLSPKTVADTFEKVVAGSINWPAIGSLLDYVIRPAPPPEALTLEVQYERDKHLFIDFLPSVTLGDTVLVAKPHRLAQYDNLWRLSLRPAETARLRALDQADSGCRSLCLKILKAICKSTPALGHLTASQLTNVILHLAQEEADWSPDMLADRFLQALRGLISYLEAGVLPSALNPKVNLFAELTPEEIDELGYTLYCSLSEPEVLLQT
UniProt Q6WCQ1: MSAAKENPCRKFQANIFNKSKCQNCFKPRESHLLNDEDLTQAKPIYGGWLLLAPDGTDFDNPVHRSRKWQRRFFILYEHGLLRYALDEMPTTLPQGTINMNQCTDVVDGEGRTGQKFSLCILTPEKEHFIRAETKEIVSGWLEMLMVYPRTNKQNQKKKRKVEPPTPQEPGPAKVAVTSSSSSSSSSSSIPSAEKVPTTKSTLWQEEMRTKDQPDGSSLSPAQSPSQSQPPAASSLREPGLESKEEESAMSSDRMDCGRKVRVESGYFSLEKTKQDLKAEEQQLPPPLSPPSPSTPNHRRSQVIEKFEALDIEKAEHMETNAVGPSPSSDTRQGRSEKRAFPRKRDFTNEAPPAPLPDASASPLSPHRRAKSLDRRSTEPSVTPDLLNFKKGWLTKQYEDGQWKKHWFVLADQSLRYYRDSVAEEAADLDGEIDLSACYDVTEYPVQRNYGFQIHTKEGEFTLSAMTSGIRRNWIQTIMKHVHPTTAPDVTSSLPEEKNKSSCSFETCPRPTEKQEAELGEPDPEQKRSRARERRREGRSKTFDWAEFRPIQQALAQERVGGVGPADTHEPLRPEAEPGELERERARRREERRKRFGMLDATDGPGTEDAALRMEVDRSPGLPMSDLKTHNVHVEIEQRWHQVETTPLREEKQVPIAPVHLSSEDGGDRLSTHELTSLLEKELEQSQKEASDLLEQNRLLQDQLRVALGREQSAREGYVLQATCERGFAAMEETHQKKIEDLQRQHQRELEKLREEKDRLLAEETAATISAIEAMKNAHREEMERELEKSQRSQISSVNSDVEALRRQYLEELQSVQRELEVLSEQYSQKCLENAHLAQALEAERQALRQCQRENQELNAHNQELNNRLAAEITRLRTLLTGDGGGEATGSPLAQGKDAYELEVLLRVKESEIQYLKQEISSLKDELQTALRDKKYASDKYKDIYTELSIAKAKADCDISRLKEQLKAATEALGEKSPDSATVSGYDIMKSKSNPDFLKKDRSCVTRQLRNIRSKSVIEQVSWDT
UniProt Q7L1V2: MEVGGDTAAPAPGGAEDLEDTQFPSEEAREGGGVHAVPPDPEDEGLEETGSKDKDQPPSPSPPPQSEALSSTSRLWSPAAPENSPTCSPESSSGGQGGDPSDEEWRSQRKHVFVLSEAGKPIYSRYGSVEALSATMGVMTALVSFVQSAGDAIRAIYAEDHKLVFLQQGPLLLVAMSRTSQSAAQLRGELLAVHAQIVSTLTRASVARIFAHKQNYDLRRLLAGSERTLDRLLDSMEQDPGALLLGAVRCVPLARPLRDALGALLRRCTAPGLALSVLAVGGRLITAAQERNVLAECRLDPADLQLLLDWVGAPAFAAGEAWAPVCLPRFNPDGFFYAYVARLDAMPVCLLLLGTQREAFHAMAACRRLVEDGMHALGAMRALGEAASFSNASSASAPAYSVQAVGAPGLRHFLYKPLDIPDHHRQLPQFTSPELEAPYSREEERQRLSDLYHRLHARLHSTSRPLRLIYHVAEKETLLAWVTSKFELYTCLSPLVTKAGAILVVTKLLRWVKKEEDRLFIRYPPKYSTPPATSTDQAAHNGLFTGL
UniProt Q9HC36: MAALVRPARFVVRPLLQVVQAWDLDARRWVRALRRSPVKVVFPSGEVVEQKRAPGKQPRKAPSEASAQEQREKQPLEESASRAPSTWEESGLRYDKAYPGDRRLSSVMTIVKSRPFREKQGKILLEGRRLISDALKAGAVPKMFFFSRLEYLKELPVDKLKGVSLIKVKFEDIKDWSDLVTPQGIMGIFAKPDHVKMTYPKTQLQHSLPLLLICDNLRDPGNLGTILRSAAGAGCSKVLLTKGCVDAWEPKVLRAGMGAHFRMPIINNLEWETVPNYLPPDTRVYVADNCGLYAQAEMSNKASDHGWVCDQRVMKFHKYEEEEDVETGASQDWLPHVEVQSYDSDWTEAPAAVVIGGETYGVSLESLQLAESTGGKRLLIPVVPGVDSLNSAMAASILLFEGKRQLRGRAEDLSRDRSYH
UniProt Q5TGZ0: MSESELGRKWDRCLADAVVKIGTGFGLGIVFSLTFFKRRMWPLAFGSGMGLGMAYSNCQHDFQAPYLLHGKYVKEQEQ
UniProt Q13015: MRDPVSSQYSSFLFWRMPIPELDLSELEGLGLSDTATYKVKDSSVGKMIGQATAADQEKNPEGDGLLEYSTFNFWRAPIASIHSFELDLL

Columns and labels:
Test in all cases: log2 fold change, soluble protein after heating vs DMSO (PISA); higher = thermal stabilisation; K562 lysate, 10 uM; active = over 0.2 and 3.5 SD of the protein, either way, in both replicates (recomputed)
[1] = compound: CN1CC[C@H](c2c(O)cc(O)c3c(=O)cc(-c4ccccc4Cl)oc23)[C@H](O)C1 [alvocidib]
Procedure, shortened: (§1)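 A 30 min treatment with 10 μM compound was applied to crude K562 extract at 1 mg/mL protein in PBS pH 7.4 with 1 mM MgCl2. Heating for 3 min spanned 48°C-58°C, after which aliquots were pooled, adjusted to 0.5% NP-40 at 4°C and spun at 21,000xg for 90 min. TMTpro 16plex LC-MS/MS of the supernatant, with channel sums equalised, gave values recorded as log-two fold change in thermal stability against solvent controls, from duplicates.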

[2] = compound: CN1CCc2c(c3ccccc3n2Cc2ccc(C(=O)NO)cc2)C1 [Tubastatin A]
Procedure, shortened: as §1

[3] = compound: CNC(=O)C1=CC=CC=C1NC2=NC(=NC=C2Cl)NC3=C(C=C(C=C3)N4CCOCC4)OC
Procedure, shortened: as §1

[4] = compound: CNC(=O)c1ccc(Nc2ncc(C(F)(F)F)c(NCc3nccnc3N(C)S(C)(=O)=O)n2)cc1 [defactinib]
Procedure, shortened: as §1

[5] = compound: CNc1nc(-c2ccc3c(N)n[nH]c3c2)cc(N2C[C@@H](C(=O)NC3CCCCC3)CC[C@H]2C)n1
Procedure, shortened: as §1

[6] = compound: COC(=O)N[C@@H](C)CNc1nccc(-c2cn(C(C)C)nc2-c2cc(Cl)cc(NS(C)(=O)=O)c2F)n1 [encorafenib]
Procedure, shortened: as §1

[7] = compound: COC(=O)[C@H](CCSC)NC(=O)C1=C(C=C(C=C1)NC[C@H](CS)N)C2=CC=CC=C2
Procedure, shortened: as §1

[8] = compound: COc1cc(Nc2ncc3c(n2)-c2ccc(Cl)cc2C(c2c(F)cccc2OC)=NC3)ccc1C(=O)O [alisertib]
Procedure, shortened: as §1

[9] = compound: COc1cc2nc(-c3cc(F)ccc3O)nc(N[C@@H]3CNC[C@H]3C(C)(C)O)c2cc1OC
Procedure, shortened: as §1

[10] = compound: COc1cc2ncnc(Nc3ccc(F)c(Cl)c3)c2cc1OCCCN1CCOCC1 [gefitinib]
Procedure, shortened: as §1

[11] = compound: CS(=O)(=O)CCNCc1ccc(-c2ccc3ncnc(Nc4ccc(OCc5cccc(F)c5)c(Cl)c4)c3c2)o1 [lapatinib]
Procedure, shortened: as §1

[12] = compound: CS(=O)(=O)N1CCN(Cc2cc3nc(-c4cccc5[nH]ncc45)nc(N4CCOCC4)c3s2)CC1 [pictilisib]
Procedure, shortened: as §1

[13] = compound: C[C@@H](Oc1cc(-c2cnn(C3CCNCC3)c2)cnc1N)c1c(Cl)ccc(F)c1Cl [crizotinib]
Procedure, shortened: as §1

[14] = compound: C[C@H](C1=CC=C(C=C1)C(=O)NC2=C3C=CNC3=NC=C2)N
Procedure, shortened: as §1

[15] = compound: C[C@H](Nc1ncnc2nc[nH]c12)c1cc2cccc(Cl)c2c(=O)n1-c1ccccc1 [duvelisib]
Procedure, shortened: as §1

[16] = compound: Cc1cc(Nc2cc(CN3CCOCC3)c3nc(C)c(Cc4ccc(Cl)cc4F)n3n2)n[nH]1 [gandotinib]
Procedure, shortened: as §1

[17] = compound: Cc1cc(Nc2cc(N3CCN(C)CC3)nc(Sc3ccc(NC(=O)C4CC4)cc3)n2)n[nH]1 [tozasertib]
Procedure, shortened: as §1

[18] = compound: Cc1ccc(-n2nc(C(C)(C)C)cc2NC(=O)Nc2ccc(OCCN3CCOCC3)c3ccccc23)cc1 [doramapimod]
Procedure, shortened: as §1

[19] = compound: Cc1ccc(NC(=O)c2ccc(CN3CC[C@H](N(C)C)C3)c(C(F)(F)F)c2)cc1Nc1nccc(-c2cncnc2)n1 [bafetinib]
Procedure, shortened: as §1

[20] = compound: Cc1cccc(CC(=O)N2CCc3c2ccc(-c2cn(C)c4ncnc(N)c24)c3F)n1
Procedure, shortened: as §1

Row | Target | log2 fold change [1] | log2 fold change [2] | log2 fold change [3] | log2 fold change [4] | log2 fold change [5] | log2 fold change [6] | log2 fold change [7] | log2 fold change [8] | log2 fold change [9] | log2 fold change [10] | log2 fold change [11] | log2 fold change [12] | log2 fold change [13] | log2 fold change [14] | log2 fold change [15] | log2 fold change [16] | log2 fold change [17] | log2 fold change [18] | log2 fold change [19] | log2 fold change [20]
1 | MLST8 (UniProt Q9BVC4) | inactive: 0.009 | inactive: -0.072 | inactive: -0.059 | inactive: -0.023 | inactive: -0.059 | inactive: -0.012 | inactive: 0.038 | inactive: -0.016 | inactive: -0.01 | inactive: -0.004 | inactive: -0.028 | inactive: -0.073 | inactive: 0.004 | inactive: -0.034 | inactive: -0.028 | inactive: -0.055 | inactive: 0.078 | inactive: 0.08 | inactive: -0.026 | inactive: 0.032
2 | MRPL12 (UniProt P52815) | inactive: 0.066 | inactive: 0.117 | inactive: 0.06 | inactive: 0.096 | inactive: 0.037 | inactive: 0.003 | inactive: -0.079 | inactive: 0.115 | inactive: -0.01 | inactive: -0.153 | inactive: 0.094 | inactive: -0.019 | inactive: 0.086 | inactive: -0.1 | inactive: 0.011 | inactive: 0 | inactive: 0.077 | inactive: -0.031 | inactive: -0.073 | inactive: 0.035
3 | MICAL1 isoform 4 (UniProt Q8TDZ2) | inactive: 0.012 | inactive: 0.041 | inactive: 0.048 | inactive: -0.004 | inactive: -0.057 | inactive: -0.008 | inactive: -0.014 | inactive: 0.098 | inactive: -0.01 | inactive: 0.013 | inactive: 0.048 | inactive: -0.036 | inactive: -0.063 | inactive: 0.025 | inactive: 0.031 | inactive: -0.035 | inactive: 0.024 | inactive: -0.014 | inactive: -0.019 | inactive: 0.018
4 | MND1 (UniProt Q9BWT6) | inactive: 0.068 | inactive: -0.023 | inactive: 0.02 | inactive: 0.038 | inactive: -0.044 | inactive: -0.002 | inactive: -0.036 | inactive: 0.007 | inactive: -0.003 | inactive: -0.01 | inactive: 0.002 | inactive: -0.012 | inactive: 0.045 | inactive: 0.094 | inactive: -0.012 | inactive: -0.059 | inactive: 0.019 | inactive: 0.017 | inactive: 0.024 | inactive: -0.112
5 | MRI1 (UniProt Q9BV20) | inactive: -0.041 | inactive: 0.016 | inactive: 0.014 | inactive: -0.002 | inactive: 0.001 | inactive: 0.001 | inactive: -0.01 | inactive: -0.024 | inactive: 0.027 | inactive: -0.002 | inactive: -0.024 | inactive: -0.014 | inactive: 0.003 | inactive: -0.061 | inactive: 0.019 | inactive: 0.047 | inactive: 0.016 | inactive: 0.011 | inactive: -0.031 | inactive: 0.044
6 | MOCS2 (UniProt O96007) | inactive: 0.026 | inactive: -0.005 | inactive: 0.034 | inactive: -0.018 | inactive: -0.002 | inactive: 0.012 | inactive: -0.066 | inactive: 0.029 | inactive: -0.02 | inactive: -0.07 | inactive: 0.024 | inactive: -0.027 | inactive: 0.07 | inactive: 0.089 | inactive: 0.019 | inactive: 0.043 | inactive: -0.026 | inactive: -0.073 | inactive: -0.012 | inactive: -0.001
7 | MLLT1 (UniProt Q03111) | inactive: -0.001 | inactive: 0.02 | inactive: 0.031 | inactive: 0.039 | inactive: 0.087 | inactive: 0.053 | inactive: -0.064 | inactive: 0.017 | inactive: 0 | inactive: -0.027 | inactive: -0.017 | inactive: 0.011 | inactive: -0.024 | inactive: 0.07 | inactive: -0.02 | inactive: 0.008 | inactive: -0.037 | inactive: 0.042 | inactive: 0.004 | inactive: 0.013
8 | MICALL1 (UniProt Q8N3F8) | inactive: -0.003 | inactive: -0.063 | inactive: -0.01 | inactive: -0.003 | inactive: 0.049 | inactive: 0.027 | inactive: -0.006 | inactive: -0.012 | inactive: 0.022 | inactive: 0.009 | inactive: -0.012 | inactive: 0.013 | inactive: -0.007 | inactive: 0.002 | inactive: -0.001 | inactive: -0.024 | inactive: 0.013 | inactive: 0.015 | inactive: -0.048 | inactive: -0.015
9 | MLX (UniProt Q9UH92) | inactive: 0.007 | inactive: -0.091 | inactive: -0.007 | inactive: -0.061 | inactive: 0.01 | inactive: 0.052 | inactive: 0.07 | inactive: 0.086 | inactive: 0.044 | inactive: 0.044 | inactive: 0.006 | inactive: -0.029 | inactive: -0.117 | inactive: -0.12 | inactive: 0.062 | inactive: -0.075 | inactive: 0.05 | inactive: 0.04 | inactive: -0.119 | inactive: 0.136
10 | MIEF1 (UniProt Q9NQG6) | inactive: 0.021 | inactive: 0 | inactive: -0.019 | inactive: -0.017 | inactive: -0.041 | inactive: 0.047 | inactive: 0.006 | inactive: -0.105 | inactive: -0.036 | inactive: 0.024 | inactive: 0.039 | inactive: -0.034 | inactive: -0.093 | inactive: 0.003 | inactive: -0.03 | inactive: -0.185 | inactive: -0.025 | inactive: 0.059 | inactive: -0.071 | inactive: 0.017
11 | MRPL20 (UniProt Q9BYC9) | inactive: -0.047 | inactive: 0.059 | inactive: 0.063 | inactive: -0.04 | inactive: 0.092 | inactive: 0.004 | inactive: 0.03 | inactive: 0.006 | inactive: -0.102 | inactive: 0.001 | inactive: 0.147 | inactive: 0.018 | inactive: -0.025 | inactive: -0.025 | inactive: 0.027 | inactive: 0.032 | inactive: 0.019 | inactive: 0.027 | inactive: -0.07 | inactive: 0.076
12 | MPRIP isoform 2 (UniProt Q6WCQ1) | inactive: -0.022 | inactive: -0.086 | inactive: -0.021 | inactive: -0.01 | inactive: 0.033 | inactive: 0.018 | inactive: -0.056 | inactive: 0.063 | inactive: -0.09 | inactive: -0.053 | inactive: -0.069 | inactive: -0.034 | inactive: 0.027 | inactive: 0.01 | inactive: -0.008 | inactive: -0.018 | inactive: -0.052 | inactive: 0.026 | inactive: -0.046 | inactive: -0.014
13 | MON1B (UniProt Q7L1V2) | inactive: -0.023 | inactive: 0.022 | inactive: 0.054 | inactive: -0.004 | inactive: 0.015 | inactive: 0.022 | inactive: -0.1 | inactive: 0.029 | inactive: 0.007 | inactive: 0.017 | inactive: -0.017 | inactive: -0.041 | inactive: 0.004 | inactive: -0.079 | inactive: 0.034 | inactive: 0.023 | inactive: -0.031 | inactive: -0.003 | inactive: -0.054 | inactive: 0.069
14 | MRM3 (UniProt Q9HC36) | inactive: -0.031 | inactive: 0.015 | inactive: 0.029 | inactive: -0.006 | inactive: 0.034 | inactive: -0.002 | inactive: -0.003 | inactive: 0.06 | inactive: 0.018 | inactive: 0.054 | inactive: 0.017 | inactive: -0.042 | inactive: 0.009 | inactive: 0.103 | inactive: 0.011 | inactive: 0.045 | inactive: 0.005 | inactive: -0.02 | inactive: -0.028 | inactive: 0.074
15 | MICOS10 (UniProt Q5TGZ0) | inactive: -0.052 | inactive: -0.027 | inactive: 0.081 | inactive: 0.106 | inactive: -0.031 | inactive: 0.013 | inactive: 0 | inactive: -0.017 | inactive: -0.059 | inactive: -0.052 | inactive: 0.032 | inactive: 0.014 | inactive: 0.005 | inactive: -0.049 | inactive: 0.108 | inactive: 0 | inactive: 0.055 | inactive: -0.024 | inactive: 0.12 | inactive: 0.059
16 | MLLT11 (UniProt Q13015) | inactive: 0.056 | inactive: -0.052 | inactive: 0.108 | inactive: 0.086 | inactive: -0.019 | inactive: 0.138 | inactive: 0.099 | inactive: 0.115 | inactive: 0.067 | inactive: 0.023 | inactive: 0.051 | inactive: 0.237 | inactive: 0 | inactive: 0.025 | inactive: 0.002 | inactive: 0.329 | inactive: 0.087 | active: 0.447 | inactive: -0.017 | inactive: 0.084

Complete entries, quoted from the list. Values in the order: log2 fold change [1]	log2 fold change [2]	log2 fold change [3]	log2 fold change [4]	log2 fold change [5]	log2 fold change [6]	log2 fold change [7]	log2 fold change [8]	log2 fold change [9]	log2 fold change [10]	log2 fold change [11]	log2 fold change [12]	log2 fold change [13]	log2 fold change [14]	log2 fold change [15]	log2 fold change [16]	log2 fold change [17]	log2 fold change [18]	log2 fold change [19]	log2 fold change [20]
MOCS2 (UniProt O96007) is listed with inactive: 0.026	inactive: -0.005	inactive: 0.034	inactive: -0.018	inactive: -0.002	inactive: 0.012	inactive: -0.066	inactive: 0.029	inactive: -0.02	inactive: -0.07	inactive: 0.024	inactive: -0.027	inactive: 0.07	inactive: 0.089	inactive: 0.019	inactive: 0.043	inactive: -0.026	inactive: -0.073	inactive: -0.012	inactive: -0.001
MLST8 (UniProt Q9BVC4) is listed with inactive: 0.009	inactive: -0.072	inactive: -0.059	inactive: -0.023	inactive: -0.059	inactive: -0.012	inactive: 0.038	inactive: -0.016	inactive: -0.01	inactive: -0.004	inactive: -0.028	inactive: -0.073	inactive: 0.004	inactive: -0.034	inactive: -0.028	inactive: -0.055	inactive: 0.078	inactive: 0.08	inactive: -0.026	inactive: 0.032
